Measurements: PMC7567853
Results are given in words; binding and its absence hold for the method and conditions named. Binding seen in cells or lysates may run through a third protein. Here binding means that the protein was enriched with, or labelled near, the bait; the list need not be complete.

Amino acid sequences for entries named in this document (tags omitted). A change or cut given only in a name is not applied to a line headed by its entry.
UniProt P70444: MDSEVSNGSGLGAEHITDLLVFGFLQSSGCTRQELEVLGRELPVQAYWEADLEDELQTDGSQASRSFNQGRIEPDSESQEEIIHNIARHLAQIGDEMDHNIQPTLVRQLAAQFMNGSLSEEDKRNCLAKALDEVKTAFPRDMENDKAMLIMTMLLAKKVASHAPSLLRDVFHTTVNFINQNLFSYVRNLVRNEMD
UniProt Q07812: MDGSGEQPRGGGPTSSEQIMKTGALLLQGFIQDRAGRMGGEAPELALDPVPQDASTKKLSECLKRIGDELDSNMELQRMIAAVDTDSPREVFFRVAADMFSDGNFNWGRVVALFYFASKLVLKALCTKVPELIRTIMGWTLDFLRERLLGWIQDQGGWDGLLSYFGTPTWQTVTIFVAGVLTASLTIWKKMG
UniProt Q12873: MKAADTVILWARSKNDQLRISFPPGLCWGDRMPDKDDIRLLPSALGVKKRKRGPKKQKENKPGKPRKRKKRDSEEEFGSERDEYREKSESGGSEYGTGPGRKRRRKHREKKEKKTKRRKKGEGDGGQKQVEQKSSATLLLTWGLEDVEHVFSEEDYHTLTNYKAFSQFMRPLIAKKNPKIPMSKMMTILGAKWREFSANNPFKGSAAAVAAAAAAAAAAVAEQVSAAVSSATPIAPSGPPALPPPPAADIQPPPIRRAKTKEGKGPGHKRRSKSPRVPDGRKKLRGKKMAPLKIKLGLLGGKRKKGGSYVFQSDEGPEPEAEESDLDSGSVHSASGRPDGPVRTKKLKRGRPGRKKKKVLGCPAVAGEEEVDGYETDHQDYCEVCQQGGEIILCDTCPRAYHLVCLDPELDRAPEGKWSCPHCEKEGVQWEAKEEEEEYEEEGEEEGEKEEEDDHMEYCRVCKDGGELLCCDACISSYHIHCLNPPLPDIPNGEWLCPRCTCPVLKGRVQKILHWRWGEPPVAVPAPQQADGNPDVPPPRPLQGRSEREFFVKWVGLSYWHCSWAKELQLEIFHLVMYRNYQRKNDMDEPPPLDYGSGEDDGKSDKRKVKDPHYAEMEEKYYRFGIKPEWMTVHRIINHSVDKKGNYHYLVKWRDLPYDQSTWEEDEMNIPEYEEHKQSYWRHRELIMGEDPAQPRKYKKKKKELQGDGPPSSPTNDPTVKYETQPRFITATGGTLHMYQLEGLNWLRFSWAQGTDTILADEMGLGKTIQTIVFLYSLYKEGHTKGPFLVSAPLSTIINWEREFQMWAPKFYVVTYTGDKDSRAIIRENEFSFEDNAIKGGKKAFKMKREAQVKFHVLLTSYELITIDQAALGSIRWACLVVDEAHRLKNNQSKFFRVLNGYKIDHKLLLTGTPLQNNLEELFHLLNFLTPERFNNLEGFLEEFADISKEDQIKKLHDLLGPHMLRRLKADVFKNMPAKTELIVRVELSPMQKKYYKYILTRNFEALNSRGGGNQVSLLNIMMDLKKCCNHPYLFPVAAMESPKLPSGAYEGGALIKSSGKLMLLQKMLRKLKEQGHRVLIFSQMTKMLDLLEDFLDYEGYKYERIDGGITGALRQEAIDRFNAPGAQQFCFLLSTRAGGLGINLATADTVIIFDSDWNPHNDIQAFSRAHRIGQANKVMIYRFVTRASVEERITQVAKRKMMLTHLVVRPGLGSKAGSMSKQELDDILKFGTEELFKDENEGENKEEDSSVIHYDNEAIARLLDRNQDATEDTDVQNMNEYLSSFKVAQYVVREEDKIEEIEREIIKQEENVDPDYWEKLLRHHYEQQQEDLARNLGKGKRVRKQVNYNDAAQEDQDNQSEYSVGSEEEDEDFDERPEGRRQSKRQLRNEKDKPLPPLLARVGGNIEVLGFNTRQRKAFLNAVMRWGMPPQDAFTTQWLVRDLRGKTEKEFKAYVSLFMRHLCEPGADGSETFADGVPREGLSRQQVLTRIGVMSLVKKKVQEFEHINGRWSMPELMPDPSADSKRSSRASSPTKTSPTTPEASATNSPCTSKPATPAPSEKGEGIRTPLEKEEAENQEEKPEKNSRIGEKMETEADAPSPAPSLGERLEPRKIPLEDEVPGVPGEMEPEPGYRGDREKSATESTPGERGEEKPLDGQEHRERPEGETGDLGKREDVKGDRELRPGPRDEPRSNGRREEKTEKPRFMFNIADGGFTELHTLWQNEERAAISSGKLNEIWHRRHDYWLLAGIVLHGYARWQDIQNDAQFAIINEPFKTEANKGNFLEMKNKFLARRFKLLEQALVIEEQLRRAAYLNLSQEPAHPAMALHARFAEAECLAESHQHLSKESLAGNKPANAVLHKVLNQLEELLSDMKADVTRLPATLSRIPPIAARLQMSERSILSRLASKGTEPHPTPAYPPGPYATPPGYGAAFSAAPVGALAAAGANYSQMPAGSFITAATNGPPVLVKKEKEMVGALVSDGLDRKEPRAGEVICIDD
UniProt Q8TDI0: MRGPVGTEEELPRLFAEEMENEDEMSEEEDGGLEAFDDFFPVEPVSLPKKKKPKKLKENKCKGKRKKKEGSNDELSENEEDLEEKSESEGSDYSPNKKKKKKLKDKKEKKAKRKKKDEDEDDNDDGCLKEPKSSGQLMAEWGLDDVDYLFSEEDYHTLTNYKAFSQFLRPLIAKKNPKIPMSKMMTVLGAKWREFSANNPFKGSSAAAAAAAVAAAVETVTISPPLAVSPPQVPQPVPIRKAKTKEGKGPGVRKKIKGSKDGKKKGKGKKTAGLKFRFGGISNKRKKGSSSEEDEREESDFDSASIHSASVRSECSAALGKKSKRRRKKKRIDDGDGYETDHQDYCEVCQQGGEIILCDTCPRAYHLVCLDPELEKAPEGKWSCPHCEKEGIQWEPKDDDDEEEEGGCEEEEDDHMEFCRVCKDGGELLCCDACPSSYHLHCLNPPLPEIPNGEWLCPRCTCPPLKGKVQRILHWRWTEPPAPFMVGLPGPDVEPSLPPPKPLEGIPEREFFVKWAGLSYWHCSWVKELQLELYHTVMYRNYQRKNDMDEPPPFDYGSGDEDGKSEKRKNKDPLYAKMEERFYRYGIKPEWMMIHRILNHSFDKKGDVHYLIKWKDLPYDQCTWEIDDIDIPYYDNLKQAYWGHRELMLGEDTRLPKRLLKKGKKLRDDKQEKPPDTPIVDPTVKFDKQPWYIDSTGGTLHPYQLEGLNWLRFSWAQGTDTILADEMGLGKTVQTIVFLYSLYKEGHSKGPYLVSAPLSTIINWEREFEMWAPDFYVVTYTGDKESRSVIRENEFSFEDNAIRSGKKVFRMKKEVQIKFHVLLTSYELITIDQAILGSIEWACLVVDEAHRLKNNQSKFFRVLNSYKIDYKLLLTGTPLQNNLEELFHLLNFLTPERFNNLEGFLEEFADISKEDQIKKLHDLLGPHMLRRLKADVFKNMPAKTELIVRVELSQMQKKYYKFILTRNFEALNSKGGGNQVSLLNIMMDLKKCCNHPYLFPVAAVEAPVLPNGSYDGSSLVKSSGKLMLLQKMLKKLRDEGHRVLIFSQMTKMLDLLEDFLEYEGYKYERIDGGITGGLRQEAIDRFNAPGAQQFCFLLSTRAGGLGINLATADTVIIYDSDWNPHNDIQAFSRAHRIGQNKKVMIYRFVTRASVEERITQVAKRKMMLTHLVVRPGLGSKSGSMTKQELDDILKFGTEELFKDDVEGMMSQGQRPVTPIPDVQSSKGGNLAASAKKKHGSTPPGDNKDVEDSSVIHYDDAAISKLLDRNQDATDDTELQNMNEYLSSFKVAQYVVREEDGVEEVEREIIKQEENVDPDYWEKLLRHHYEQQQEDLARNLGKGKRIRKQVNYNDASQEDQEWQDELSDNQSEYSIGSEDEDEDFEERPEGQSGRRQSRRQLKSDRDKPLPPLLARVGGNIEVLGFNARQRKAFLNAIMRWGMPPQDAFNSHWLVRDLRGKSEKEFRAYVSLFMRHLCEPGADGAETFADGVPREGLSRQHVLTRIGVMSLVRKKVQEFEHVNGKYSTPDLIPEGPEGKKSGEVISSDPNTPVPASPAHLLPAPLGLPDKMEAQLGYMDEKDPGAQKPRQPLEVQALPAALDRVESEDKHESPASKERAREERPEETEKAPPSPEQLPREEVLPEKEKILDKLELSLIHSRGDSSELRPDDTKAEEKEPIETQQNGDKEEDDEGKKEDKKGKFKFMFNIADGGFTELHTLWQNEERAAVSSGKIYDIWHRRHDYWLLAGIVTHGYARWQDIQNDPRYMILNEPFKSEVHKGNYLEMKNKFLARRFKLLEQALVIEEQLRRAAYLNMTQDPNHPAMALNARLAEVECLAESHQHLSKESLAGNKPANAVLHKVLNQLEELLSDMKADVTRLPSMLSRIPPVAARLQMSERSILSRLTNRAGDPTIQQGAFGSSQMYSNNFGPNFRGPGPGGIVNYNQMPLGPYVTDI
UniProt Q7Z6E9: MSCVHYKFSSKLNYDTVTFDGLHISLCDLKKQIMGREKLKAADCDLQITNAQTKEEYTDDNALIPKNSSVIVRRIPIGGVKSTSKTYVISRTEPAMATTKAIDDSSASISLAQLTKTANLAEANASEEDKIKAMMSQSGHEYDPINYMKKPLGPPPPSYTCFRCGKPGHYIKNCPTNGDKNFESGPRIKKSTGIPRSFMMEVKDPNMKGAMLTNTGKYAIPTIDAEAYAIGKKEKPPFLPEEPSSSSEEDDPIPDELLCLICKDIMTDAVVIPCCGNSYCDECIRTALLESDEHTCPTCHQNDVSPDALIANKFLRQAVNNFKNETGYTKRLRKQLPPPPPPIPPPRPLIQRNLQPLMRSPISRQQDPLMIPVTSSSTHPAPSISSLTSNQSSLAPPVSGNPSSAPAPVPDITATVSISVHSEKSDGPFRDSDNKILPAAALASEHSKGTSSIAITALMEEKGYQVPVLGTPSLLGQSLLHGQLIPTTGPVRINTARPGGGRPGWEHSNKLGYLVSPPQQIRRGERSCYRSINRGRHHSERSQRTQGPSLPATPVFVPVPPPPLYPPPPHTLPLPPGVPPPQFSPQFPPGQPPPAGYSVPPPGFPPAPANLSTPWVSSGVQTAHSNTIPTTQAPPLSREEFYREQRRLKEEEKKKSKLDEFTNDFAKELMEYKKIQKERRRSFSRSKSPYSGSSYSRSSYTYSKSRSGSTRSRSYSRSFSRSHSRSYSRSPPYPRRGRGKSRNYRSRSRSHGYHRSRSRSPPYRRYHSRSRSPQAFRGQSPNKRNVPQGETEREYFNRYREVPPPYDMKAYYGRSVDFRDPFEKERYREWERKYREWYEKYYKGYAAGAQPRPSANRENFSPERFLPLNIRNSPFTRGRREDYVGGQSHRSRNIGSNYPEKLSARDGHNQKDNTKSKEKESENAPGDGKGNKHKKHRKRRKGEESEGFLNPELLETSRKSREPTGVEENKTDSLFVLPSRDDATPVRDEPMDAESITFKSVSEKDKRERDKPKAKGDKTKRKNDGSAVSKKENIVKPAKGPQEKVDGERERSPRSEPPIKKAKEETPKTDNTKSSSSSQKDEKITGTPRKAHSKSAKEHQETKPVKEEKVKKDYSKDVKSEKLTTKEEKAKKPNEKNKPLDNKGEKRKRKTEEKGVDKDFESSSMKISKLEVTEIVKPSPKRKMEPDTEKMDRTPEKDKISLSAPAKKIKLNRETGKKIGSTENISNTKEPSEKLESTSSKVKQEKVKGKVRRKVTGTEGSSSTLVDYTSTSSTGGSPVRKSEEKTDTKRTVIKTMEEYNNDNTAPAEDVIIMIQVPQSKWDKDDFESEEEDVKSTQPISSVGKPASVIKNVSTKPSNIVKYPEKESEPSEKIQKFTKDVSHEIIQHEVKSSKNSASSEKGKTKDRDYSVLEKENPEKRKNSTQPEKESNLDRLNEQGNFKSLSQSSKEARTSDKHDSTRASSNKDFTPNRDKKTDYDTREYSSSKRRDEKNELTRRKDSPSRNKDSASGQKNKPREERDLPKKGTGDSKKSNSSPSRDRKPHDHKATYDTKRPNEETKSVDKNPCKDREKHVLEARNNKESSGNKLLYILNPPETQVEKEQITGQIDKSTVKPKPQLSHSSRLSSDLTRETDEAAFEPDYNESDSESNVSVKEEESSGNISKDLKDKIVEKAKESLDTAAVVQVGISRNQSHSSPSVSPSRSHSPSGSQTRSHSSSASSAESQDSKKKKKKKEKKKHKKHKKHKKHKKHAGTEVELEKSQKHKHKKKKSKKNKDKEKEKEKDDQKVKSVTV
UniProt O75367: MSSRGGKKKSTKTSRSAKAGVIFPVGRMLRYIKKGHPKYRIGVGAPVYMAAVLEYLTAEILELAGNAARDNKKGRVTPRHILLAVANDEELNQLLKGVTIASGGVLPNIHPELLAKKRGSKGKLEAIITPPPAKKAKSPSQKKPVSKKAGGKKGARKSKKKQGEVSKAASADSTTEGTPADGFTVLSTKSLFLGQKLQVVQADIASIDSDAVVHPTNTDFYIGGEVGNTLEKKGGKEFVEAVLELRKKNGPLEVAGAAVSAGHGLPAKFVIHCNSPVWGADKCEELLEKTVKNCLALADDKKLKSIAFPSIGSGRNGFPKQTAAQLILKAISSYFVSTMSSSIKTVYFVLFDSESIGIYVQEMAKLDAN

B1: Mitochondrial 2-oxoglutarate/malate carrier protein (protein, UniProt Q02978 1-314)
chain: MAATASAGAGGIDGKPRTSPKSVKFLFGGLAGMGATVFVQPLDLVKNRMQLSGEGAKTREYKTSFHALTSILKAEGLRGIYTGLSAGLLRQATYTTTRLGIYTVLFERLTGADGTPPGFLLKAVIGMTAGATGAFVGTPAEVALIRMTADGRLPADQRRGYKNVFNALIRITREEGVLTLWRGCIPTMARAVVVNAAQLASYSQSKQFLLDSGYFSDNILCHFCASMISGLVTTAASMPVDIAKTRIQNMRMIDGKPEYKNGLDVLFKVVRYEGFFSLWKGFTPYYARLGPHTVLTFIFLEQMNKAYKRLFLSG
B2: ATP-binding cassette subfamily D member 3 (protein, UniProt P28288 1-659)
chain: MAAFSKYLTARNSSLAGAAFLLLCLLHKRRRALGLHGKKSGKPPLQNNEKEGKKERAVVDKVFFSRLIQILKIMVPRTFCKETGYLVLIAVMLVSRTYCDVWMIQNGTLIESGIIGRSRKDFKRYLLNFIAAMPLISLVNNFLKYGLNELKLCFRVRLTKYLYEEYLQAFTYYKMGNLDNRIANPDQLLTQDVEKFCNSVVDLYSNLSKPFLDIVLYIFKLTSAIGAQGPASMMAYLVVSGLFLTRLRRPIGKMTITEQKYEGEYRYVNSRLITNSEEIAFYNGNKREKQTVHSVFRKLVEHLHNFILFRFSMGFIDSIIAKYLATVVGYLVVSRPFLDLSHPRHLKSTHSELLEDYYQSGRMLLRMSQALGRIVLAGREMTRLAGFTARITELMQVLKDLNHGKYERTMVSQQEKGIEGVQVIPLIPGAGEIIIADNIIKFDHVPLATPNGDVLIRDLNFEVRSGANVLICGPNGCGKSSLFRVLGELWPLFGGRLTKPERGKLFYVPQRPYMTLGTLRDQVIYPDGREDQKRKGISDLVLKEYLDNVQLGHILEREGGWDSVQDWMDVLSGGEKQRMAMARLFYHKPQFAILDECTSAVSVDVEGYIYSHCRKVGITLFTVSHRKSLWKHHEYYLHMDGRGNYEFKQITEDTVEFGS
B3: BRCA1-associated protein (protein, UniProt Q7Z569 1-592)
chain: MSVSLVVIRLELAEHSPVPAGFGFSAAAGEMSDEEIKKTTLASAVACLEGKSPGEKVAIIHQHLGRREMTDVIIETMKSNPDELKTTVEERKSSEASPTAQRSKDHSKECINAAPDSPSKQLPDQISFFSGNPSVEIVHGIMHLYKTNKMTSLKEDVRRSAMLCILTVPAAMTSHDLMKFVAPFNEVIEQMKIIRDSTPNQYMVLIKFRAQADADSFYMTCNGRQFNSIEDDVCQLVYVERAEVLKSEDGASLPVMDLTELPKCTVCLERMDESVNGILTTLCNHSFHSQCLQRWDDTTCPVCRYCQTPEPVEENKCFECGVQENLWICLICGHIGCGRYVSRHAYKHFEETQHTYAMQLTNHRVWDYAGDNYVHRLVASKTDGKIVQYECEGDTCQEEKIDALQLEYSYLLTSQLESQRIYWENKIVRIEKDTAEEINNMKTKFKETIEKCDNLEHKLNDLLKEKQSVERKCTQLNTKVAKLTNELKEEQEMNKCLRANQVLLQNKLKEEERVLKETCDQKDLQITEIQEQLRDVMFYLETQQKINHLPAETRQEIQEGQINIAMASASSPASSGGSGKLPSRKGRSKRGK
B4: Macrophage-capping protein (protein, UniProt P40121 1-348)
chain: MYTAIPQSGSPFPGSVQDPGLHVWRVEKLKPVPVAQENQGVFFSGDSYLVLHNGPEEVSHLHLWIGQQSSRDEQGACAVLAVHLNTLLGERPVQHREVQGNESDLFMSYFPRGLKYQEGGVESAFHKTSTGAPAAIKKLYQVKGKKNIRATERALNWDSFNTGDCFILDLGQNIFAWCGGKSNILERNKARDLALAIRDSERQGKAQVEIVTDGEEPAEMIQVLGPKPALKEGNPEEDLTADKANAQAAALYKVSDATGQMNLTKVADSSPFALELLISDDCFVLDNGLCGKIYIWKGRKANEKERQAALQVAEGFISRMQYAPNTQVEILPQGHESPIFKQFFKDWK
B5: Nucleoporin 155 kDa (protein, UniProt O75694 1-1391)
chain: MPSSLLGAAMPASTSAAALQEALENAGRLIDRQLQEDRMYPDLSELLMVSAPNNPTVSGMSDMDYPLQGPGLLSVPNLPEISSIRRVPLPPELVEQFGHMQCNCMMGVFPPISRAWLTIDSDIFMWNYEDGGDLAYFDGLSETILAVGLVKPKAGIFQPHVRHLLVLATPVDIVILGLSYANLQTGSGVLNDSLSGGMQLLPDPLYSLPTDNTYLLTITSTDNGRIFLAGKDGCLYEVAYQAEAGWFSQRCRKINHSKSSLSFLVPSLLQFTFSEDDPILQIAIDNSRNILYTRSEKGVIQVYDLGQDGQGMSRVASVSQNAIVSAAGNIARTIDRSVFKPIVQIAVIENSESLDCQLLAVTHAGVRLYFSTCPFRQPLARPNTLTLVHVRLPPGFSASSTVEKPSKVHRALYSKGILLMAASENEDNDILWCVNHDTFPFQKPMMETQMTAGVDGHSWALSAIDELKVDKIITPLNKDHIPITDSPVVVQQHMLPPKKFVLLSAQGSLMFHKLRPVDQLRHLLVSNVGGDGEEIERFFKLHQEDQACATCLILACSTAACDREVSAWATRAFFRYGGEAQMRFPTTLPPPSNVGPILGSPVYSSSPVPSGSPYPNPSFLGTPSHGIQPPAMSTPVCALGNPATQATNMSCVTGPEIVYSGKHNGICIYFSRIMGNIWDASLVVERIFKSGNREITAIESSVPCQLLESVLQELKGLQEFLDRNSQFAGGPLGNPNTTAKVQQRLIGFMRPENGNPQQMQQELQRKFHEAQLSEKISLQAIQQLVRKSYQALALWKLLCEHQFTIIVAELQKELQEQLKITTFKDLVIRDKELTGALIASLINCYIRDNAAVDGISLHLQDICPLLYSTDDAICSKANELLQRSRQVQNKTEKERMLRESLKEYQKISNQVDLSNVCAQYRQVRFYEGVVELSLTAAEKKDPQGLGLHFYKHGEPEEDIVGLQAFQERLNSYKCITDTLQELVNQSKAAPQSPSVPKKPGPPVLSSDPNMLSNEEAGHHFEQMLKLSQRSKDELFSIALYNWLIQVDLADKLLQVASPFLEPHLVRMAKVDQNRVRYMDLLWRYYEKNRSFSNAARVLSRLADMHSTEISLQQRLEYIARAILSAKSSTAISSIAADGEFLHELEEKMEVARIQLQIQETLQRQYSHHSSVQDAVSQLDSELMDITKLYGEFADPFKLAECKLAIIHCAGYSDPILVQTLWQDIIEKELSDSVTLSSSDRMHALSLKIVLLGKIYAGTPRFFPLDFIVQFLEQQVCTLNWDVGFVIQTMNEIGVPLPRLLEVYDQLFKSRDPFWNRMKKPLHLLDCIHVLLIRYVENPSQVLNCERRRFTNLCLDAVCGYLVELQSMSSSVAVQAITGNFKSLQAKLERLH
B6: Adaptor-related protein complex 3 beta- 1 subunit isoform 1 (protein, UniProt O00203 1-1094)
chain: MSSNSFPYNEQSGGGEATELGQEATSTISPSGAFGLFSSDLKKNEDLKQMLESNKDSAKLDAMKRIVGMIAKGKNASELFPAVVKNVASKNIEIKKLVYVYLVRYAEEQQDLALLSISTFQRALKDPNQLIRASALRVLSSIRVPIIVPIMMLAIKEASADLSPYVRKNAAHAIQKLYSLDPEQKEMLIEVIEKLLKDKSTLVAGSVVMAFEEVCPDRIDLIHKNYRKLCNLLVDVEEWGQVVIIHMLTRYARTQFVSPWKEGDELEDNGKNFYESDDDQKEKTDKKKKPYTMDPDHRLLIRNTKPLLQSRNAAVVMAVAQLYWHISPKSEAGIISKSLVRLLRSNREVQYIVLQNIATMSIQRKGMFEPYLKSFYVRSTDPTMIKTLKLEILTNLANEANISTLLREFQTYVKSQDKQFAAATIQTIGRCATNILEVTDTCLNGLVCLLSNRDEIVVAESVVVIKKLLQMQPAQHGEIIKHMAKLLDSITVPVARASILWLIGENCERVPKIAPDVLRKMAKSFTSEDDLVKLQILNLGAKLYLTNSKQTKLLTQYILNLGKYDQNYDIRDRTRFIRQLIVPNVKSGALSKYAKKIFLAQKPAPLLESPFKDRDHFQLGTLSHTLNIKATGYLELSNWPEVAPDPSVRNVEVIELAKEWTPAGKAKQENSAKKFYSESEEEEDSSDSSSDSESESGSESGEQGESGEEGDSNEDSSEDSSSEQDSESGRESGLENKRTAKRNSKAKGKSDSEDGEKENEKSKTSDSSNDESSSIEDSSSDSESESEPESESESRRVTKEKEKKTKQDRTPLTKDVSLLDLDDFNPVSTPVALPTPALSPSLMADLEGLHLSTSSSVISVSTPAFVPTKTHVLLHRMSGKGLAAHYFFPRQPCIFGDKMVSIQITLNNTTDRKIENIHIGEKKLPIGMKMHVFNPIDSLEPEGSITVSMGIDFCDSTQTASFQLCTKDDCFNVNIQPPVGELLLPVAMSEKDFKKEQGVLTGMNETSAVIIAAPQNFTPSVIFQKVVNVANVGAVPSGQDNIHRFAAKTVHSGSLMLVTVELKEGSTAQLIINTEKTVIGSVLLRELKPVLSQG
B7: ATP-binding cassette subfamily F member 3 isoform 1 (protein, UniProt Q9NUQ8 1-709)
chain: MATCAEILRSEFPEIDGQVFDYVTGVLHSGSADFESVDDLVEAVGELLQEVSGDSKDDAGIRAVCQRMYNTLRLAEPQSQGNSQVLLDAPIQLSKITENYDCGTKLPGLLKREQSSTVNAKKLEKAEARLKAKQEKRSEKDTLKTSNPLVLEEASASQAGSRKESRLESSGKNKSYDVRIENFDVSFGDRVLLAGADVNLAWGRRYGLVGRNGLGKTTLLKMLATRSLRVPAHISLLHVEQEVAGDDTPALQSVLESDSVREDLLRRERELTAQIAAGRAEGSEAAELAEIYAKLEEIEADKAPARASVILAGLGFTPKMQQQPTREFSGGWRMRLALARALFARPDLLLLDEPTNMLDVRAILWLENYLQTWPSTILVVSHDRNFLNAIATDIIHLHSQRLDGYRGDFETFIKSKQERLLNQQREYEAQQQYRQHIQVFIDRFRYNANRASQVQSKLKMLEKLPELKPVDKESEVVMKFPDGFEKFSPPILQLDEVDFYYDPKHVIFSRLSVSADLESRICVVGENGAGKSTMLKLLLGDLAPVRGIRHAHRNLKIGYFSQHHVEQLDLNVSAVELLARKFPGRPEEEYRHQLGRYGISGELAMRPLASLSGGQKSRVAFAQMTMPCPNFYILDEPTNHLDMETIEALGRALNNFRGGVILVSHDERFIRLVCRELWVCEGGGVTRVEGGFDQYRALLQEQFRREGFL

These molecules were tested against mBidWT–BirA* (mouse) (UniProt P70444) (assay: proximity labelling; BioID in HeLa cells stably expressing BirA* baits; 50 µM biotin for 16 h with nocodazole (mitotic enrichment) or DMSO (unsynchronised); lysis in RIPA, streptavidin-affinity purification, label-free LC–MS/MS (Progenesis QI); enrichment against the paired venus-BirA* control; three independent experiments).

Question: Which binding does the source give for Bax (from UniProt Q07812 1-192) here?
Answer: Its binding is “binds weakly”.

Question: Which binding does the source give for “Chromodomain-helicase-DNA-binding protein 3 (from UniProt Q12873 1-2000)” here?
Answer: The binding was “binds”.

Question: How did the binding turn out when “Chromodomain-helicase-DNA-binding protein 5 (from UniProt Q8TDI0 1-1954)” was run?
Answer: The binding was “binds”.

Question: For Coronin (from UniProt Q9BR76 1-489), which binding is on record?
Answer: Its binding is “binds”.

Question: “E3 ubiquitin–protein ligase RBBP6 (from UniProt Q7Z6E9 1-1792)” was tested. Which binding did it give?
Answer: The binding was “binds”.

Question: Which binding does the source give for “Glucose-6-phosphate 1 dehydrogenase (from UniProt P11413 1-515)” here?
Answer: The binding was “binds”.

Question: Which binding does the source give for Histone H2A (from UniProt O75367 1-369) here?
Answer: The binding was “binds”.

Question: “PDZ and LIM domain protein 1 (from UniProt O00151 1-329)” was tested. Which binding did it give?
Answer: Its binding is “binds”.

Question: How did the binding turn out when “Protein AHNAK2 (from UniProt Q8IVF2 1-5795)” was run?
Answer: The binding was “binds”.

Question: Which binding does the source give for “Protein SON (from UniProt P18583 1-2426)” here?
Answer: Its binding is “binds”.

Question: Which binding does the source give for “Signal transducer and activator of transcription 1-alpha/beta (from UniProt P42224 1-750)” here?
Answer: The binding was “binds”.

Question: For B1, which binding is on record?
Answer: The binding was “binds”.

Question: Which binding does the source give for B2 here?
Answer: Its binding is “binds”.

Question: For B3, which binding is on record?
Answer: The binding was “binds”.

Question: B4 was tested. Which binding did it give?
Answer: The binding was “binds”.

Question: B5 was tested. Which binding did it give?
Answer: Its binding is “binds”.

Question: For B6, which binding is on record?
Answer: Its binding is “binds”.

Question: For B7, which binding is on record?
Answer: The binding was “binds”.
